{
  "source": "patent US20120039897A1",
  "key": {"[1]": {"target": "Aβ(1-40 Cys) oligomer (Example 12A)", "test": "western blot after non-reducing Tricine SDS-PAGE"}, "[2]": {"target": "Aβ(1-40 Cys) oligomer (Example 12A)", "test": "Biacore, antibody captured on anti-human Ig chip, peptide injected"}, "[3]": {"target": "Aβ(1-40 Cys) oligomer (Example 12A)", "test": "Biacore, antibody captured on anti-human Ig chip, cys-dimer peptide injected; qualitative grade"}, "[4]": {"target": "amyloid β peptide (antigen of the EIA of Table 2)", "test": "ELISA (EIA), amyloid β peptide immobilised; qualitative grade"}},
  "note": "These are yes or no findings as the source states them, for the method shown. Some entries that bind do so weakly or less than the wild type.",
  "data": [
    {"binder": "recombinant Aβ(21-37) autoantibody 55/61 (antibody, V domains shown) VH: EVQLVESGGGVVQPGGSLRLSCAASGFTFRNYDMHWVRQGIGKGLVWVSRIGTAGDRYYAGSVKGRFTISRENAKDSLYLQMNSLRVGDAAVYYCARGAGRWAPLGAFDIWGQGTLVIVS VL: DIQMTQSPGTLSLSPGERAALSCRASQSVSSYLAWYQQKPGQAPRLLIYAASIRATGIPDRFSGSGSGTDFTLTISRLEPEDFAVYYCQQYGSSQGTFGPGTKVDIKR", "values": [
      {"measurement": "binding", "setting": "[1]", "result": "binds"},
      {"measurement": "binding", "setting": "[2]", "result": "binds"},
      {"measurement": "binding", "setting": "[3]", "result": "binds"}
    ]},
    {"binder": "recombinant Aβ(21-37) autoantibody 54/61 (antibody, V domains shown) VH: EVQLVESGGGVVQPGGSLRLSCAASGFTFRNYDMHWVRQGIGKGLVWVSRIGTAGDRYYAGSVKGRFTISRENAKDSLYLQMNSLRVGDAAVYYCARGAGRWAPLGAFDIWGQGTLVIVS VL: DIVLTQSPATLSLSPGERVTITCRASQSVNSYLAWYQQKPGQAPRLLIYGASTRATGIPDRFSGSGSGTDFTLTISRLEPEDFAVYYCQQYGSSQGTFGPGTKVDIKR", "values": [
      {"measurement": "binding", "setting": "[1]", "result": "binds"},
      {"measurement": "binding", "setting": "[2]", "result": "binds"},
      {"measurement": "binding", "setting": "[3]", "result": "binds"}
    ]},
    {"binder": "recombinant Aβ(21-37) autoantibody 54/60 (antibody, V domains shown) VH: EVQLVESGGGVVQPGGSLRLSCAASGFTFRNYDMHWVRQGIGKGLEWVGRIGTAGRTNYNPSLKGRFTISRENAKDSLYLQMNSLRVGDAAVYYCARGAGRWAPLGAFDIWGQGTLVIVS VL: DIVLTQSPATLSLSPGERVTITCRASQSVNSYLAWYQQKPGQAPRLLIYGASTRATGIPDRFSGSGSGTDFTLTISRLEPEDFAVYYCQQYGSSQGTFGPGTKVDIKR", "values": [
      {"measurement": "binding", "setting": "[4]", "result": "binds"},
      {"measurement": "binding", "setting": "[3]", "result": "binds"}
    ]},
    {"binder": "recombinant Aβ(21-37) autoantibody 55/60 (antibody, V domains shown) VH: EVQLVESGGGVVQPGGSLRLSCAASGFTFRNYDMHWVRQGIGKGLEWVGRIGTAGRTNYNPSLKGRFTISRENAKDSLYLQMNSLRVGDAAVYYCARGAGRWAPLGAFDIWGQGTLVIVS VL: DIQMTQSPGTLSLSPGERAALSCRASQSVSSYLAWYQQKPGQAPRLLIYAASIRATGIPDRFSGSGSGTDFTLTISRLEPEDFAVYYCQQYGSSQGTFGPGTKVDIKR", "values": [
      {"measurement": "binding", "setting": "[4]", "result": "binds"},
      {"measurement": "binding", "setting": "[3]", "result": "binds"}
    ]},
    {"binder": "recombinant Aβ(21-37) autoantibody 50/60 (antibody, V domains shown) VH: EVQLVESGGGVVQPGGSLRLSCAASGFTFRNYDMHWVRQGIGKGLEWVGRIGTAGRTNYNPSLKGRFTISRENAKDSLYLQMNSLRVGDAAVYYCARGAGRWAPLGAFDIWGQGTLVIVS VL: DIQMTQSPATLSLSPGERAALSCRASQSVNSYLAWYQQKPGQAPRLLIYGAASRATGIPARFSGSGSGTDFTLTISRLEPEDFAVYYCQQYGSSQGTFGPGTKVDIKR", "values": [
      {"measurement": "binding", "setting": "[4]", "result": "binds"},
      {"measurement": "binding", "setting": "[3]", "result": "binds"}
    ]},
    {"binder": "recombinant Aβ(21-37) autoantibody 50/61 (antibody, V domains shown) VH: EVQLVESGGGVVQPGGSLRLSCAASGFTFRNYDMHWVRQGIGKGLVWVSRIGTAGDRYYAGSVKGRFTISRENAKDSLYLQMNSLRVGDAAVYYCARGAGRWAPLGAFDIWGQGTLVIVS VL: DIQMTQSPATLSLSPGERAALSCRASQSVNSYLAWYQQKPGQAPRLLIYGAASRATGIPARFSGSGSGTDFTLTISRLEPEDFAVYYCQQYGSSQGTFGPGTKVDIKR", "values": [
      {"measurement": "binding", "setting": "[4]", "result": "binds"},
      {"measurement": "binding", "setting": "[3]", "result": "binds"}
    ]},
    {"binder": "recombinant Aβ(21-37) autoantibody 51/61 (antibody, V domains shown) VH: EVQLVESGGGVVQPGGSLRLSCAASGFTFRNYDMHWVRQGIGKGLVWVSRIGTAGDRYYAGSVKGRFTISRENAKDSLYLQMNSLRVGDAAVYYCARGAGRWAPLGAFDIWGQGTLVIVS VL: EIVLTQSPATLSLSPGERVTITCRESQGIRNYLAWYQQKPGQAPRLLIYGASTRATGIPDRFSGSGSGTDFTLTISRLEPEDFAVYYCQQYGSSQGTFGPGTKVDIKR", "values": [
      {"measurement": "binding", "setting": "[4]", "result": "binds"},
      {"measurement": "binding", "setting": "[3]", "result": "binds"}
    ]}
  ]
}
